Assay results reported in article PMC4685197.
Construct, isoform or probe ends are uncertain for at least one entry. At least one verdict rests on a figure or table, not on a statement of the authors.

The chains behind the UniProt entries cited, without tags or fusion partners. Residues count along the entry.
UniProt P16422, 24-314: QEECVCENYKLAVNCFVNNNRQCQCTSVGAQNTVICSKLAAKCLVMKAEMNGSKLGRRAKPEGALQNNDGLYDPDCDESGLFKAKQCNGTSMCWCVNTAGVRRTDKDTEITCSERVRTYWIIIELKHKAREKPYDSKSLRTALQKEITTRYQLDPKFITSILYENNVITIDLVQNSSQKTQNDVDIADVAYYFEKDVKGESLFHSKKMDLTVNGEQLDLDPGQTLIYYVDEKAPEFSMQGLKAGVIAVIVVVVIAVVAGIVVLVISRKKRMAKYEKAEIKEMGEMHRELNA

Assays:
[1] = molecular target: EpCAM (epithelial cell adhesion molecule), endogenous in tissue sections (human (patient tissue)) (UniProt P16422); assay: immunofluorescence staining of tissue sections; conditions: 250 nM aptamer, sections blocked with 1 uM random sequence, random-sequence pool negative; 3' (PEG)3 spacer; Deparaffinized, antigen-retrieved tissue sections; binding buffer (composition not given); 250 nM aptamer for 1 h (Cy3, temperature not stated) or 30 min at 37 C; native protein; label: 3' Cy3; single-stranded DNA
[2] = molecular target: EpCAM (epithelial cell adhesion molecule), endogenous in tissue sections (human (patient tissue)) (UniProt P16422); assay: immunofluorescence co-staining of tissue sections with antibody; conditions: 250 nM aptamer, no competition, Deparaffinized, antigen-retrieved tissue sections, binding buffer (composition not given), 250 nM aptamer for 1 h (Cy3, temperature not stated) or 30 min at 37 C, native protein, single-stranded DNA

Sequence | binding result [1] | binding result ([2]; anti-EpEX (MOC-31) pre-bound) | binding result ([2]; anti-EpICD (E144) pre-bound)
CACTACAGAGGTTGCGTCTGTCCCACGTTGTCATGGGGGGTTGGCCTG [SYL3C-Cy3] | binds | – | –
CACTACAGAGGTTGCGTCTGTCCCACGTTGTCATGGGGGGTTGGCCTG [SYL3C-FITC] | – | binds | binds
